From PubChem BioAssay AID342 (DTP/NCI, 2004) come the findings set out here.

This assay deals with Swiss mice, Sarcoma 180 sc, mean tumor weight T/C. Description: NCI In Vivo Anticancer Drug Screen. Data for tumor model Sarcoma 180 (subcutaneous) in Swiss mice. Particulars: T/C endpoint: mean tumor weight, higher T/C = larger tumour; for T/C: evaluated on day 8. In outline:
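Transplantable tumors were established in mice, compound was given, then survival or tumor size was recorded. The treated value was divided by the vehicle-control value.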

[1] abbreviates: dose: 50.0 mg/kg/injection, schedule: Q#A X014 (ip), vehicle: carboxymethylcellulose (CMC).
Where [2] appears, read: dose: 500.0 mg/kg/injection, schedule: Q01DX007 (ip), vehicle: other.
[3] abbreviates: dose: 500.0 mg/kg/injection, schedule: Q01DX007 (ip), vehicle: saline.

The list does not hold the whole screen: it is rich in T/C values a quarter to a half above the control, in often repeated tests (any T/C) and in doses without a T/C. Further doses and runs are listed elsewhere. T/C: endpoint of the treated group in % of that of the vehicle group. Schedules are NCI's codes, read here as Q, the interval in days (D) or hours (H), X, the number of doses. Some schedules carry Z or #; the key to these is not given. Some structures stand for samples that the source files as different forms (salt, stereo form or complex); doses refer to the form tested. Some T/C values are followed by the survivors on the day toxicity was checked, most often the fifth; where none is given, no animal had died by that day. Some doses have a count of surviving animals in place of a T/C: the source files T/C as zero there, which appears to mark a toxic dose or a test without result, not a measured value. Survivors were counted at the toxicity check, usually on the fifth day, unless a day is given; later deaths do not show. Some entries were tested several times; the results are listed from low to high.

In the case of `C[C@]12CC[C@H](OC3OC(CO)C(O)C(O)C3O)C[C@H]1CC[C@@H]1[C@@H]2CC[C@]2(C)[C@@H](C3=CCOC3=O)CC[C@]12O` (stereo partly specified), the survivor count runs as follows: (dose: 1.0 mg/kg/injection, schedule: Q01DX007 (ip), vehicle: carboxymethylcellulose (CMC)) 3 of 6; (dose: 2.0 mg/kg/injection, schedule: Q01DX007 (ip), vehicle: carboxymethylcellulose (CMC)) 0 of 6; (dose: 2.0 mg/kg/injection, schedule: Q01DX007 (ip), vehicle: saline) 3 of 6; (dose: 2.0 mg/kg/injection, schedule: Q01DX007 (ip), vehicle: water) 3 of 6; (dose: 3.0 mg/kg/injection, schedule: Q03DX003 (ip), vehicle: carboxymethylcellulose (CMC)) 3 of 6; (dose: 3.8 mg/kg/injection, schedule: Q01DX007 (ip), vehicle: saline) 2 of 7. Also, the survivor count runs as follows: (dose: 6.0 mg/kg/injection, schedule: Q03DX003 (ip), vehicle: carboxymethylcellulose (CMC)) 0 of 6 and 1 of 6; (dose: 2000.0 micrograms/kg/injection, schedule: Q01DX007 (ip), vehicle: carboxymethylcellulose (CMC)) 0 of 6. In addition, the T/C was 147 % of control [4 of 6 alive] (dose: 6.8 mg/kg/injection, schedule: Q01DX007 (oral), vehicle: carboxymethylcellulose (CMC)) and 149 % of control (dose: 24.0 mg/kg/injection, schedule: Q01DX007 (oral), vehicle: carboxymethylcellulose (CMC)).
For `COc1ccc(C[C@H](N)C(=O)NC2C(CO)OC(n3cnc4c(N(C)C)ncnc43)C2O)cc1` (stereo partly specified), the T/C (dose: 25.0 mg/kg/injection, schedule: Q#A X014 (ip), vehicle: carboxymethylcellulose (CMC)) was 128 % of control [5 of 6 alive]. In addition, the survivor count under setting [1] is 3 of 6.
Consider `O=C(O)c1ccc(N=NSc2ncnc3nc[nH]c23)cc1O`, for which, for the setting “dose: 8.0 mg/kg/injection, schedule: Q01DX007 (ip), vehicle: carboxymethylcellulose (CMC)”, the survivor count is listed as 2 of 6.
Take `CC(C)(S)C(N)C(=O)O` (stereo unspecified): the T/C is 131 % of control (dose: 50.0 mg/kg/injection, schedule: Q01DX007 (oral), vehicle: saline); 125 % of control (dose: 125.0 mg/kg/injection, schedule: Q01DX007 (oral), vehicle: saline); 128 % of control (dose: 500.0 mg/kg/injection, schedule: Q01DX007 (oral), vehicle: saline). Moreover, the survivor count (dose: 100.0 mg/kg/injection, schedule: Q01DX007 (oral), vehicle: saline) is 4 of 7 and the survivor count (dose: 200.0 mg/kg/injection, schedule: Q01DX007 (oral), vehicle: saline) is reported as 0 of 7.
`NC(=O)Oc1ccccc1`: the survivor count by setting is: under setting [2], 4 of 7; (dose: 750.0 mg/kg/injection, schedule: Q01DX007 (ip), vehicle: other) 0 of 6 and 1 of 7; (dose: 1119.0 mg/kg/injection, schedule: Q01DX007 (ip), vehicle: other) 1 of 6; (dose: 1679.0 mg/kg/injection, schedule: Q01DX007 (ip), vehicle: other) 0 of 6.
With `Nc1nc(N)c2[nH]cnc2n1`, the T/C (dose: 12.5 mg/kg/injection, schedule: Q#A X014 (ip), vehicle: carboxymethylcellulose (CMC)) was 142 % of control and the T/C under setting [1] is 138 % of control.
Regarding `CCOC(N)=O`, the T/C (dose: 150.0 mg/kg/injection, schedule: Q#A X014 (ip), vehicle: carboxymethylcellulose (CMC)) was 127 % of control. The survivor count (dose: 790.0 mg/kg/injection, schedule: Q01DX007 (ip), vehicle: carboxymethylcellulose (CMC)) was 4 of 10.
Consider `COc1cc(C(=O)CC2CCCCN2)ccc1O` (stereo unspecified), for which the survivor count under setting [3] was 0 of 6.
`Cc1cc(C)c(N)c(C)c1N`: the survivor count (dose: 187.5 mg/kg/injection, schedule: Q#A X014 (ip), vehicle: methylcellulose (MC)) was 2 of 6 and 3 of 6.
As to `CC[C@]1(O)C[C@H]2CN(CCc3c([nH]c4ccccc34)[C@@](C(=O)OC)(c3cc4c(cc3OC)N(C=O)[C@H]3[C@@](O)(C(=O)OC)[C@H](OC(C)=O)[C@]5(CC)C=CCN6CC[C@]43[C@@H]65)C2)C1`, the survivor count (dose: 0.25 mg/kg/injection, schedule: Q01DX007 (ip), vehicle: saline) was 1 of 7.
Consider `c1ccc(CNc2ncnc3[nH]ncc23)cc1`, for which the survivor count reads like this: (dose: 32.0 mg/kg/injection, schedule: Q01DX007 (ip), vehicle: carboxymethylcellulose (CMC)) 0 of 6; (dose: 62.0 mg/kg/injection, schedule: Q01DX007 (ip), vehicle: carboxymethylcellulose (CMC)) 1 of 6; (dose: 62.5 mg/kg/injection, schedule: Q01DX007 (ip), vehicle: carboxymethylcellulose (CMC)) 0 of 6.
On to `COS(C)(=O)=O`, for which the survivor count runs as follows: (dose: 100.0 mg/kg/injection, schedule: Q01DX007 (ip), vehicle: carboxymethylcellulose (CMC)) 3 of 6; (dose: 200.0 mg/kg/injection, schedule: Q01DX007 (ip), vehicle: carboxymethylcellulose (CMC)) 0 of 6.
For the compound `SCc1ccccn1`, the survivor count by setting is: (dose: 250.0 mg/kg/injection, schedule: Q01DX007 (ip), vehicle: other) 3 of 6; under setting [2], 0 of 6.
As for `CNCc1ccccc1`, the survivor count (dose: 220.0 mg/kg/injection, schedule: Q01DX007 (ip), vehicle: carboxymethylcellulose (CMC)) was 2 of 6; the survivor count (dose: 330.0 mg/kg/injection, schedule: Q01DX007 (ip), vehicle: carboxymethylcellulose (CMC)) is given as 0 of 6; the survivor count (dose: 500.0 mg/kg/injection, schedule: Q01DX007 (ip), vehicle: carboxymethylcellulose (CMC)) is reported as 0 of 6.
As to `CSCS(=O)C[C@H](CO)NC(=O)/C=C/c1c(C)[nH]c(=O)[nH]c1=O` (stereo partly specified), the T/C (dose: 0.75 mg/kg/injection, schedule: Q03DX003 (ip), vehicle: saline) is 132 % of control. For the same compound, the survivor count (dose: 0.75 mg/kg/injection, schedule: Q#A X014 (ip), vehicle: carboxymethylcellulose (CMC)) is recorded as 1 of 7; the survivor count (dose: 2.0 mg/kg/injection, schedule: Q01DX007 (iv), vehicle: saline) is reported as 1 of 6; the survivor count (dose: 250.0 mg/kg/injection, schedule: Q#A X014 (ip), vehicle: carboxymethylcellulose (CMC)) is reported as 3 of 6.
Regarding `Cc1ccc(N=NN(C)C)cc1`, the survivor count (dose: 112.0 mg/kg/injection, schedule: Q01DX007 (ip), vehicle: carboxymethylcellulose (CMC)) was 3 of 6.
Consider `CN1CCC23c4c5ccc(O)c4OC2C(O)C=CC3C1C5` (stereo unspecified), for which the survivor count under setting [3] was 0 of 6.
As to `Cc1ccc(NC(C(=O)c2ccccc2)c2ccccc2)cc1` (stereo unspecified), the survivor count by setting is: (dose: 336.0 mg/kg/injection, schedule: Q01DX007 (ip), vehicle: saline) 0 of 7; (dose: 504.0 mg/kg/injection, schedule: Q01DX007 (ip), vehicle: saline) 1 of 7.
Regarding `O=C(Nc1ccc(NC2=NCCN2)cc1)c1ccc(C(=O)Nc2ccc(NC3=NCCN3)cc2)cc1`, the survivor count (dose: 32.0 mg/kg/injection, schedule: Q01DX007 (ip), vehicle: saline) was 3 of 6; the survivor count (dose: 64.0 mg/kg/injection, schedule: Q01DX007 (ip), vehicle: saline) is 0 of 6; the survivor count (dose: 128.0 mg/kg/injection, schedule: Q01DX007 (ip), vehicle: saline) is given as 0 of 6.
`CC1CCOS(=O)O1` (stereo unspecified): the T/C (dose: 6.25 mg/kg/injection, schedule: Q01DX007 (oral), vehicle: propolene glycol) was 149 % of control and the T/C (dose: 24.0 mg/kg/injection, schedule: Q01DX007 (ip), vehicle: carboxymethylcellulose (CMC)) is 137 % of control.
For `C=CC(CN1CC1)OC(C)=O` (stereo unspecified), the survivor count (dose: 4.6 mg/kg/injection, schedule: Q01DX007 (ip), vehicle: carboxymethylcellulose (CMC)) is given as 1 of 10 and the survivor count (dose: 9.2 mg/kg/injection, schedule: Q01DX007 (ip), vehicle: carboxymethylcellulose (CMC)) is on record as 6 of 10.
With `CC(=O)[C@H]1CC[C@H]2[C@@H]3C[C@H](F)C4=CC(=O)CC[C@]4(C)[C@@]3(F)[C@@H](O)C[C@]12C`, the survivor count is given as 1 of 6 (dose: 282.0 mg/kg/injection, schedule: Q01DX007 (sc), vehicle: steroid suspending solution) and 2 of 6 (dose: 376.0 mg/kg/injection, schedule: Q01DX007 (sc), vehicle: steroid suspending solution).
